The target of experiment [1] is full-length mouse polycystin-1 (PC1) S4134D (mouse) (UniProt O08852). As to the kind of experiment: co-IP; PC2 co-expressed with wild-type or S4134D full-length mouse PC1 in HEK293T cells; co-immunoprecipitation from lysates.
Experiment [2] addresses full-length mouse polycystin-1 (PC1), wild-type (mouse) (UniProt O08852). The experiment is described as above.

The chains behind the UniProt entries cited, without tags or fusion partners. Where a name states a change or a piece, a line headed by the entry shows the natural chain unless it says otherwise. Residues count along the entry.
full-length mouse polycystin-1 (PC1), wild-type (O08852, residues 24-4293): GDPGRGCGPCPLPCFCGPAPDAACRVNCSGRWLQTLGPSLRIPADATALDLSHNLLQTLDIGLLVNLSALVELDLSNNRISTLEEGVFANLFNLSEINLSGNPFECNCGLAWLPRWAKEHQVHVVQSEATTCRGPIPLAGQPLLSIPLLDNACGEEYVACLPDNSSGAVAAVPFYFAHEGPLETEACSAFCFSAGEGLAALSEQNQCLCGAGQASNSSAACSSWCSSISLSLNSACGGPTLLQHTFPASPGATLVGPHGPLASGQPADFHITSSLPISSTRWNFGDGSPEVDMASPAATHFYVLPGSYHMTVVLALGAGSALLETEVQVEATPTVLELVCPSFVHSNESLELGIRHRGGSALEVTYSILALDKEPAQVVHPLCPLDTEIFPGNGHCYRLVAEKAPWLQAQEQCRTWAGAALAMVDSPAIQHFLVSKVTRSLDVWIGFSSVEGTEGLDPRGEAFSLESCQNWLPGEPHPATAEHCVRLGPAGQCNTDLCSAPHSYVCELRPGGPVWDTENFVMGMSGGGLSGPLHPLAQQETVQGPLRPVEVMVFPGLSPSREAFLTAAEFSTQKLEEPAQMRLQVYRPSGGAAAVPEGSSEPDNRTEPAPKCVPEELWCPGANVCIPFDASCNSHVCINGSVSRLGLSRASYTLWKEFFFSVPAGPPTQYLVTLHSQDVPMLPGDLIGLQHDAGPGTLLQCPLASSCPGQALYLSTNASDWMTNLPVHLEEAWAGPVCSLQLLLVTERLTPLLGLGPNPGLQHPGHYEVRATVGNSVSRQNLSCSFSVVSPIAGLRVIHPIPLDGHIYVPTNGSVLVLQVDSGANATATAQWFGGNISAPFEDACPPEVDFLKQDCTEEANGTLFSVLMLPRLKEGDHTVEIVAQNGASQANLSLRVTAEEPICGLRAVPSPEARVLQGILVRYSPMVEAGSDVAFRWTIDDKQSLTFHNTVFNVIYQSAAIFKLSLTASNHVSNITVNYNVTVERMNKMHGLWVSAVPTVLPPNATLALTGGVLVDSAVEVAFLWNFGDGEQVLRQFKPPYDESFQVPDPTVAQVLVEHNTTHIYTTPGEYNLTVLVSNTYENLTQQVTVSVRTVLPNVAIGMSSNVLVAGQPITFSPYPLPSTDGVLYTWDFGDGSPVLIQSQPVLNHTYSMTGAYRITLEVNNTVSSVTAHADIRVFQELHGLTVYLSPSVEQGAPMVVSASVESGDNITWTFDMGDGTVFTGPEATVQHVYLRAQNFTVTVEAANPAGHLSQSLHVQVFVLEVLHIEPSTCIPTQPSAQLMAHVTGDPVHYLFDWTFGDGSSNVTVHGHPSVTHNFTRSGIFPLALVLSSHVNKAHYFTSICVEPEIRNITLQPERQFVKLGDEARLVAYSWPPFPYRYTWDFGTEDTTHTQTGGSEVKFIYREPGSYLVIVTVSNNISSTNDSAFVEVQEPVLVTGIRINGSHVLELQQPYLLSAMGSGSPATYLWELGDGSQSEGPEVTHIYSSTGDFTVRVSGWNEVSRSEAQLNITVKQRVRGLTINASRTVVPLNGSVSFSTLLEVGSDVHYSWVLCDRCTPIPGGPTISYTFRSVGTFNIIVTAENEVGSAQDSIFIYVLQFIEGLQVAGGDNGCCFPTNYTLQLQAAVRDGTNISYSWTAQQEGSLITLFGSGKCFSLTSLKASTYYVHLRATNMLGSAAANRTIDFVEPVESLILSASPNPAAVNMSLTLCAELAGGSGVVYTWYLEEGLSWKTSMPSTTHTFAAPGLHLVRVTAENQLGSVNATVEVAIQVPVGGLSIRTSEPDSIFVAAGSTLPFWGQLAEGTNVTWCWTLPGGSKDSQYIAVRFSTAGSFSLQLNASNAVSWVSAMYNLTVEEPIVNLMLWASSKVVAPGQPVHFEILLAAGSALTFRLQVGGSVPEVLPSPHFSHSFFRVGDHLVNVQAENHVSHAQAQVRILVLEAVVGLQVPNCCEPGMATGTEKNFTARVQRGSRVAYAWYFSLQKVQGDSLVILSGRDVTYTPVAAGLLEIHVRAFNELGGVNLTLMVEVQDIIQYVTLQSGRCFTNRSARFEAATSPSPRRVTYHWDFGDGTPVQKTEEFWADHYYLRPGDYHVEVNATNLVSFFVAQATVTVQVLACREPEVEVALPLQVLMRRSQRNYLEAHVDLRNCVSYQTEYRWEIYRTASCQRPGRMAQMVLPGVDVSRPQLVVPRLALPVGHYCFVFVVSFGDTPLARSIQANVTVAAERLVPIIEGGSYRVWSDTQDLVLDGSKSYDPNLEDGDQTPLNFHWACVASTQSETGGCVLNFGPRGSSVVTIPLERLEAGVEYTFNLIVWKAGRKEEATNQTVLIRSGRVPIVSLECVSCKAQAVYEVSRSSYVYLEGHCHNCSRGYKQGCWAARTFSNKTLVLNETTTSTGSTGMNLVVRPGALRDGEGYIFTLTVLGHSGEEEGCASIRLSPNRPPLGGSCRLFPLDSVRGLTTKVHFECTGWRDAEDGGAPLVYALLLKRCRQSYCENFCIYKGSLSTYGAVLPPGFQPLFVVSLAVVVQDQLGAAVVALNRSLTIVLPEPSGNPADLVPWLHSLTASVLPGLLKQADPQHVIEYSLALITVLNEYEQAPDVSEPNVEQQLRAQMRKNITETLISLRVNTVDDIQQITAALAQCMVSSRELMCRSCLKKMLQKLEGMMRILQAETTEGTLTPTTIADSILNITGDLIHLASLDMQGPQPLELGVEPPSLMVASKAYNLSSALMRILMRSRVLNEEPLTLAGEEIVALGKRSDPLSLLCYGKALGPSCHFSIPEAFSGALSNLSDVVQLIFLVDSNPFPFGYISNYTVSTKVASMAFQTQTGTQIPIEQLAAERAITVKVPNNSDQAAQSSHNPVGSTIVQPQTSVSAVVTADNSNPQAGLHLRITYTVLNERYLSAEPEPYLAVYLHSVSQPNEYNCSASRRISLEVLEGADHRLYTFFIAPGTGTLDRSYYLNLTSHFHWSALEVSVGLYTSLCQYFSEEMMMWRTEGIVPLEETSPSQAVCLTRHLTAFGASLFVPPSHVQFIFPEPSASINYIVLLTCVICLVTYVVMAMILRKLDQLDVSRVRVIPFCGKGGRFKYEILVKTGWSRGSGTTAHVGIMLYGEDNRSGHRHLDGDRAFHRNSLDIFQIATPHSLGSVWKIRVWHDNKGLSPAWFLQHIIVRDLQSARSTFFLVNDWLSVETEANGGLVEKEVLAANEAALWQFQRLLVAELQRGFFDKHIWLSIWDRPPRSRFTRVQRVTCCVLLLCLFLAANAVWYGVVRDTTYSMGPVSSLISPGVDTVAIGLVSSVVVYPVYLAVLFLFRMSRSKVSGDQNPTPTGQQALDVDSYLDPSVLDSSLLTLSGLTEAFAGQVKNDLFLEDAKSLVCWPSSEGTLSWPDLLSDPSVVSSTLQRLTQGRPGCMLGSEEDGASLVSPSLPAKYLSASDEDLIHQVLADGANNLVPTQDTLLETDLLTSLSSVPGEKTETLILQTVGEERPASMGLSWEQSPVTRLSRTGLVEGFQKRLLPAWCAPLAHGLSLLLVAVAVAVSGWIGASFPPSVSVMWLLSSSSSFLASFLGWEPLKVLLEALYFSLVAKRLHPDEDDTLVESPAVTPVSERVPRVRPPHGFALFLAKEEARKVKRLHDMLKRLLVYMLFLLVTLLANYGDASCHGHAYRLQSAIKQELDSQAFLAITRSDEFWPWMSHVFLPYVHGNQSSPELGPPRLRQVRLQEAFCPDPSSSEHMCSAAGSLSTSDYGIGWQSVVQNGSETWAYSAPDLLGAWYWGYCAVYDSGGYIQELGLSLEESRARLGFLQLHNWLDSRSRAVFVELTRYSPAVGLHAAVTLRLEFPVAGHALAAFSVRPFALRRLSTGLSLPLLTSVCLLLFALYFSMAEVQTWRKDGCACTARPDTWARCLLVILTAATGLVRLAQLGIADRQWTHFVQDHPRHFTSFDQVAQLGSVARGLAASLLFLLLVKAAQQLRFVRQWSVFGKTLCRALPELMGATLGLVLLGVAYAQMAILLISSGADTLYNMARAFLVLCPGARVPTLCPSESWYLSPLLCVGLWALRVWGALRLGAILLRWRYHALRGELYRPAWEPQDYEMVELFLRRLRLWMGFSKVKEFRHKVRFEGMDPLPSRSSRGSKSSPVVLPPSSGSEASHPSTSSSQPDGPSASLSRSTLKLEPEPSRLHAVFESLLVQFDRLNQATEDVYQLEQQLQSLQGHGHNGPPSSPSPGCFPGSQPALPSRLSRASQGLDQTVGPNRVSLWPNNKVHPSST

No constants are given. Whether binding was seen depends on the method and setting. In cells and extracts the contact can be indirect. Some binding calls cover weakened binding; strength is not graded here.

B1: polycystin-2 (PC2) (protein, UniProt Q13563 1-968)
chain: MVNSSRVQPQQPGDAKRPPAPRAPDPGRLMAGCAAVGASLAAPGGLCEQRGLEIEMQRIRQAAARDPPAGAAASPSPPLSSCSRQAWSRDNPGFEAEEEEEEVEGEEGGMVVEMDVEWRPGSRRSAASSAVSSVGARSRGLGGYHGAGHPSGRRRRREDQGPPCPSPVGGGDPLHRHLPLEGQPPRVAWAERLVRGLRGLWGTRLMEESSTNREKYLKSVLRELVTYLLFLIVLCILTYGMMSSNVYYYTRMMSQLFLDTPVSKTEKTNFKTLSSMEDFWKFTEGSLLDGLYWKMQPSNQTEADNRSFIFYENLLLGVPRIRQLRVRNGSCSIPQDLRDEIKECYDVYSVSSEDRAPFGPRNGTAWIYTSEKDLNGSSHWGIIATYSGAGYYLDLSRTREETAAQVASLKKNVWLDRGTRATFIDFSVYNANINLFCVVRLLVEFPATGGVIPSWQFQPLKLIRYVTTFDFFLAACEIIFCFFIFYYVVEEILEIRIHKLHYFRSFWNCLDVVIVVLSVVAIGINIYRTSNVEVLLQFLEDQNTFPNFEHLAYWQIQFNNIAAVTVFFVWIKLFKFINFNRTMSQLSTTMSRCAKDLFGFAIMFFIIFLAYAQLAYLVFGTQVDDFSTFQECIFTQFRIILGDINFAEIEEANRVLGPIYFTTFVFFMFFILLNMFLAIINDTYSEVKSDLAQQKAEMELSDLIRKGYHKALVKLKLKKNTVDDISESLRQGGGKLNFDELRQDLKGKGHTDAEIEAIFTKYDQDGDQELTEHEHQQMRDDLEKEREDLDLDHSSLPRPMSSRSFPRSLDDSEEDDDEDSGHSSRRRGSISSGVSYEEFQVLVRRVDRMEHSIGSIVSKIDAVIVKLEIMERAKLKRREVLGRLLDGVAEDERLGRDSEIHREQMERLVREELERWESDDAASQISHGLGTPVGLNGQPRPRSSRPSSSQSTEGMEGAGGNGSSNVHV
For the molecule B1, the binding entry in experiment [1] and in experiment [2] was “binds” throughout.

The values above are taken from article PMC4999191.
